Sequences of proteins named here, by UniProt entry; tags and fusion partners are left off.
UniProt Q9Y484: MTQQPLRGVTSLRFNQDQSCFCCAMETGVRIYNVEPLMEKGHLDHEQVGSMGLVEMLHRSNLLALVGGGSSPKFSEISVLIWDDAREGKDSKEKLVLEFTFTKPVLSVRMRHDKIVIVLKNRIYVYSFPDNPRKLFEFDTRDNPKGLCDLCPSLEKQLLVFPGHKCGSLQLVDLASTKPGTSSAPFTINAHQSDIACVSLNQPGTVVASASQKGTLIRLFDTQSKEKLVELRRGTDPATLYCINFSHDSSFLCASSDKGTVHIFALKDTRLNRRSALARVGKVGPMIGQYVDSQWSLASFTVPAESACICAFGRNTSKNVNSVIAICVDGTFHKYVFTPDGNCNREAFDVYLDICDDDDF
UniProt Q5MNZ9: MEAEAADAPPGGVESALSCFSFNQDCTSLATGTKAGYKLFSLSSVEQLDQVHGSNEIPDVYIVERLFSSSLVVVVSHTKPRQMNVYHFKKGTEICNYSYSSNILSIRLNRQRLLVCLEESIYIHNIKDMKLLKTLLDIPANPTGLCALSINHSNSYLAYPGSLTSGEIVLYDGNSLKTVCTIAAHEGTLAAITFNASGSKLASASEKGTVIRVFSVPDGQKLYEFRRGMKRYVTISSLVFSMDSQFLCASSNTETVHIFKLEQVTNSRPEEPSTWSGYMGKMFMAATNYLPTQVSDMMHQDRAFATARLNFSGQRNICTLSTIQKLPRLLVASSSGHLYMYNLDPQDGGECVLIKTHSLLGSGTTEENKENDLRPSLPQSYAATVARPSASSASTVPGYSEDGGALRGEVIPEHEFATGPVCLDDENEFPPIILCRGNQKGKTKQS
UniProt Q5MNZ6: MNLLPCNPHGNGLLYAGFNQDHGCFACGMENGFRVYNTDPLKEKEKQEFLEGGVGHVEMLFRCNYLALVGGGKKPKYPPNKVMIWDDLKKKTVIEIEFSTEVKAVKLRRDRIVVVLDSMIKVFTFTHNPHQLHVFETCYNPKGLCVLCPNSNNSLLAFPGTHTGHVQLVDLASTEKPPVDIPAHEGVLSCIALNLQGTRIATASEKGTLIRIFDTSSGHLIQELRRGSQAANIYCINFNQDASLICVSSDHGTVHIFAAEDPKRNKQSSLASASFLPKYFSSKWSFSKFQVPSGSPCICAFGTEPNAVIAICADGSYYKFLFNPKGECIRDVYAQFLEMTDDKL
UniProt Q96BY7: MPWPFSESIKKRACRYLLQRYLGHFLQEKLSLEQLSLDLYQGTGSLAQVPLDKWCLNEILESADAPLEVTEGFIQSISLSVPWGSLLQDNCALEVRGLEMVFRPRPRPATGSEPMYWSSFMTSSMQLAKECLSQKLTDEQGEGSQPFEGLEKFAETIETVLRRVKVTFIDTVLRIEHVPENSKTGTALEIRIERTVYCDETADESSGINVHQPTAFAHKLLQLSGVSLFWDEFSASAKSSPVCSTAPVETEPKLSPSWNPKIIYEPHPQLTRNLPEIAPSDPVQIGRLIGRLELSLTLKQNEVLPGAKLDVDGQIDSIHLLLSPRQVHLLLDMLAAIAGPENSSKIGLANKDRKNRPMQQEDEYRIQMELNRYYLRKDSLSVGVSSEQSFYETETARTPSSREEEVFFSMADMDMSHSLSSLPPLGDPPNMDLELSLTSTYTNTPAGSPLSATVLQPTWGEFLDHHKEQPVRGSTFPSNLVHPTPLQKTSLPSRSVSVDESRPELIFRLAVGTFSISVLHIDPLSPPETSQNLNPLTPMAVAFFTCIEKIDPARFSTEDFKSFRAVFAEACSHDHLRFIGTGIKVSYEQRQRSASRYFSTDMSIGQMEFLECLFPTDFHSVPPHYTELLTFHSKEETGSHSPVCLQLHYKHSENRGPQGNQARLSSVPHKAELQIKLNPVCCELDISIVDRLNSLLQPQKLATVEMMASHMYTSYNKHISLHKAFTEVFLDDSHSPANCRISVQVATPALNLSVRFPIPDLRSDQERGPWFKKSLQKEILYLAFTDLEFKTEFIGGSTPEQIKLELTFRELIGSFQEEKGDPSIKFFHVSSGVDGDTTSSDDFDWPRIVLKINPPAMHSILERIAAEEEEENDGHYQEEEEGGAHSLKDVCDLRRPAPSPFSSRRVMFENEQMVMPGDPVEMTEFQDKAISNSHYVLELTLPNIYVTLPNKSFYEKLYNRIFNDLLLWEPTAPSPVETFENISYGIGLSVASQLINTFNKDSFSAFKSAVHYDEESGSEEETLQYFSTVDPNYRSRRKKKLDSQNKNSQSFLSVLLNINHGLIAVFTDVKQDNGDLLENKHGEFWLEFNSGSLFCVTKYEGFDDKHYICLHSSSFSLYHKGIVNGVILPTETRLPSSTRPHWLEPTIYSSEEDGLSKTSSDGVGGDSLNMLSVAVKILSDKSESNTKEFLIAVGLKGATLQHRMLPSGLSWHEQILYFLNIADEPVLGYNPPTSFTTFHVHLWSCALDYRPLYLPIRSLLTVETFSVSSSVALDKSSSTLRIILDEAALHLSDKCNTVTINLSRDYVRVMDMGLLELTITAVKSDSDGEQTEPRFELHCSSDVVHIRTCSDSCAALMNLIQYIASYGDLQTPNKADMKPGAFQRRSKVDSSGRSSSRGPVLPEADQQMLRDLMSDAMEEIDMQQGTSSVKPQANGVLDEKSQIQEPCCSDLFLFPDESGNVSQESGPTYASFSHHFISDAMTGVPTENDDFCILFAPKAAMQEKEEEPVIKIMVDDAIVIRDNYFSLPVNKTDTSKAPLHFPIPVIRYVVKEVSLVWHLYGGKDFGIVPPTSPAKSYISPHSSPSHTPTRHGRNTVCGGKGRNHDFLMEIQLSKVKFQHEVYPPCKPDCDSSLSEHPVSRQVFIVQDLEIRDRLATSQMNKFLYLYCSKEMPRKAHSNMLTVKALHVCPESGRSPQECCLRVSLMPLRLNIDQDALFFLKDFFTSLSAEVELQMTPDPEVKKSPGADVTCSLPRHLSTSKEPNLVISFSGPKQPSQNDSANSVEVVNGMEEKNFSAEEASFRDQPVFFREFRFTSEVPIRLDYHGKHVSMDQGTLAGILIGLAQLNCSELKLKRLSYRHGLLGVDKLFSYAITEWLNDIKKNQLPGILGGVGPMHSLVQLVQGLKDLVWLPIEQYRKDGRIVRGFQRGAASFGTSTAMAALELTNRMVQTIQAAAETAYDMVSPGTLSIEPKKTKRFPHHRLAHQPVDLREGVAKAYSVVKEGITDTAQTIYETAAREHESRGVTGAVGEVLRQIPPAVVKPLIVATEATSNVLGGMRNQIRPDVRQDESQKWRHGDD
UniProt Q9Y266: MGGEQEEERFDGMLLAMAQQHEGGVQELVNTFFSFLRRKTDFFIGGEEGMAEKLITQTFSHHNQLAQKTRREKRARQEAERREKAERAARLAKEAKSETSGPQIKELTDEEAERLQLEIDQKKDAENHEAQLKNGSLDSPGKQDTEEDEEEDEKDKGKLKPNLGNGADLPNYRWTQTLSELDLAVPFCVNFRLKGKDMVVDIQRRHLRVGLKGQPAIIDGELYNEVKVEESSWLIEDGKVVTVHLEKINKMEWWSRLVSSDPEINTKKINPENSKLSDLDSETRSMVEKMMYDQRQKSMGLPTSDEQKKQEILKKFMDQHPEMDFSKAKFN
UniProt Q2TAZ0: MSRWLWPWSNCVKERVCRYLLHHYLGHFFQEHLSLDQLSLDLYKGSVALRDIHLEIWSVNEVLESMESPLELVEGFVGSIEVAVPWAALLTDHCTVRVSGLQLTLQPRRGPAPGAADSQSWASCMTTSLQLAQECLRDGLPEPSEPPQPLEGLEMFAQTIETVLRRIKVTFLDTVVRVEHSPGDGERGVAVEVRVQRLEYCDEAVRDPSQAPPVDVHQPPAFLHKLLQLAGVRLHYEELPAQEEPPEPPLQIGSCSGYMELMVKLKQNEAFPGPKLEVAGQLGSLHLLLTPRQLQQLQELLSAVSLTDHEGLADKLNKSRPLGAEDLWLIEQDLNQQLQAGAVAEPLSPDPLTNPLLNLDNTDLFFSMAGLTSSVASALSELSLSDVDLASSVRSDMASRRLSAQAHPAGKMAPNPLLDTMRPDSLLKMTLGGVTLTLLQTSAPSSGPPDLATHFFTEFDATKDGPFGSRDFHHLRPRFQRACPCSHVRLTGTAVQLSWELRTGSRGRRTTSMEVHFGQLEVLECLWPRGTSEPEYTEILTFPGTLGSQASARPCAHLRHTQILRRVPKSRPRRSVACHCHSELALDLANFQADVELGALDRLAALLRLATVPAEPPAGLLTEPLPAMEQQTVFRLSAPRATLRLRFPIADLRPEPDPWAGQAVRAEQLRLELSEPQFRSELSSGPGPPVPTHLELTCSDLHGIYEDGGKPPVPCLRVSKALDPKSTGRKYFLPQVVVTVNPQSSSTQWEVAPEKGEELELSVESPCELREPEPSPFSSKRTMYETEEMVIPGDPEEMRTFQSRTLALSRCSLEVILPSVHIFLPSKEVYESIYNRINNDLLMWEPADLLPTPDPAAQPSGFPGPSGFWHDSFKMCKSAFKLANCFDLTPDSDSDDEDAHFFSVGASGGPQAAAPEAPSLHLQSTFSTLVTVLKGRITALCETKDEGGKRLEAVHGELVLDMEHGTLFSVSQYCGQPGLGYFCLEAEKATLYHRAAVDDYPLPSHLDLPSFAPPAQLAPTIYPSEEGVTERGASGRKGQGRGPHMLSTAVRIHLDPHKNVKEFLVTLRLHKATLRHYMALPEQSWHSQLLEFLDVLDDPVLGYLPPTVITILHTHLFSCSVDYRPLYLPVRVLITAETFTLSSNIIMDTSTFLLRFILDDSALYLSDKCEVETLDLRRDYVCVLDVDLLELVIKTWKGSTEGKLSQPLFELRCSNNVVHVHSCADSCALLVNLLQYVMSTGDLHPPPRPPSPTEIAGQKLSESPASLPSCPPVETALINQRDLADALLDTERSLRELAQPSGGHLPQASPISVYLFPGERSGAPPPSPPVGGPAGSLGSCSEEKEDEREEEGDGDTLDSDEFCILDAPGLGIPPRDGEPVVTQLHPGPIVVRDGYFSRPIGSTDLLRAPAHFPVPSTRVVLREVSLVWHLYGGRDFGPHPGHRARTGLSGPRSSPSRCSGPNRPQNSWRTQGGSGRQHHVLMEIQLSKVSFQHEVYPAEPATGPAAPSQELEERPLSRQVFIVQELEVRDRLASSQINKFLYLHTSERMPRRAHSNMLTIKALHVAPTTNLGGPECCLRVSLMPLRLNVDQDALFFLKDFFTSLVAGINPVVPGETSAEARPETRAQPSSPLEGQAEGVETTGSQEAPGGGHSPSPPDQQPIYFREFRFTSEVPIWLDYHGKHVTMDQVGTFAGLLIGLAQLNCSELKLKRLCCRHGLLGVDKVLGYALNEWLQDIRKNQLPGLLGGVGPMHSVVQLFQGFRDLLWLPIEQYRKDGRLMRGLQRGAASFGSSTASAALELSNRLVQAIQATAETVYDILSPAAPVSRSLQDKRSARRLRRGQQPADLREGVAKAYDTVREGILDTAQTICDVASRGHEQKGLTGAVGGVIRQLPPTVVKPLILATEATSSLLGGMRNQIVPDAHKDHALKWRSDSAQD

In article PMC5460038:

How the values were obtained:
Test in all cases: affinity purification with mass spectrometry; anti-GFP immunoprecipitation from monoclonal U2OS cell lines stably expressing GFP-WIPI proteins or GFP alone, nano LC-MS/MS
GFP-WIPI4 (human) = GFP-WIPI4 (human) (UniProt Q9Y484)
GFP-WIPI1 (human) = GFP-WIPI1 (human) (UniProt Q5MNZ9)
GFP-WIPI3 (human) [1] = biological target: GFP-WIPI3 (human) (UniProt Q5MNZ6)
GFP-WIPI3 (human) [2] = biological target: GFP-WIPI3 (human) (UniProt Q5MNZ6); remark: listed apart in the source

Row | Molecule | binding (GFP-WIPI4 (human)) | binding (GFP-WIPI1 (human)) | binding (GFP-WIPI3 (human) [1]) | binding (GFP-WIPI3 (human) [2])
1 | ATG2B (endogenous, identified by MS) (from UniProt Q96BY7 1-2078) | binds | – | – | –
2 | endogenous NudC (from UniProt Q9Y266 1-331) | binds | binds | no binding | –
3 | ATG2A (endogenous, identified by MS) (from UniProt Q2TAZ0 1-1938) | binds | – | – | –
4 | endogenous TSC1 (protein, UniProt Q92574 1-1164) MAQQANVGELLAMLDSPMLGVRDDVTAVFKENLNSDRGPMLVNTLVDYYLETSSQPALHILTTLQEPHDKHLLDRINEYVGKAATRLSILSLLGHVIRLQPSWKHKLSQAPLLPSLLKCLKMDTDVVVLTTGVLVLITMLPMIPQSGKQHLLDFFDIFGRLSSWCLKKPGHVAEVYLVHLHASVYALFHRLYGMYPCNFVSFLRSHYSMKENLETFEEVVKPMMEHVRIHPELVTGSKDHELDPRRWKRLETHDVVIECAKISLDPTEASYEDGYSVSHQISARFPHRSADVTTSPYADTQNSYGCATSTPYSTSRLMLLNMPGQLPQTLSSPSTRLITEPPQATLWSPSMVCGMTTPPTSPGNVPPDLSHPYSKVFGTTAGGKGTPLGTPATSPPPAPLCHSDDYVHISLPQATVTPPRKEERMDSARPCLHRQHHLLNDRGSEEPPGSKGSVTLSDLPGFLGDLASEEDSIEKDKEEAAISRELSEITTAEAEPVVPRGGFDSPFYRDSLPGSQRKTHSAASSSQGASVNPEPLHSSLDKLGPDTPKQAFTPIDLPCGSADESPAGDRECQTSLETSIFTPSPCKIPPPTRVGFGSGQPPPYDHLFEVALPKTAHHFVIRKTEELLKKAKGNTEEDGVPSTSPMEVLDRLIQQGADAHSKELNKLPLPSKSVDWTHFGGSPPSDEIRTLRDQLLLLHNQLLYERFKRQQHALRNRRLLRKVIKAAALEEHNAAMKDQLKLQEKDIQMWKVSLQKEQARYNQLQEQRDTMVTKLHSQIRQLQHDREEFYNQSQELQTKLEDCRNMIAELRIELKKANNKVCHTELLLSQVSQKLSNSESVQQQMEFLNRQLLVLGEVNELYLEQLQNKHSDTTKEVEMMKAAYRKELEKNRSHVLQQTQRLDTSQKRILELESHLAKKDHLLLEQKKYLEDVKLQARGQLQAAESRYEAQKRITQVFELEILDLYGRLEKDGLLKKLEEEKAEAAEAAEERLDCCNDGCSDSMVGHNEEASGHNGETKTPRPSSARGSSGSRGGGGSSSSSSELSTPEKPPHQRAGPFSSRWETTMGEASASIPTTVGSLPSSKSFLGMKARELFRNKSESQCDEDGMTSSLSESLKTELGKDLGVEAKIPLNLDGPHPSPPTPDSVGQLHIMDYNETHHEHS | – | – | – | binds

Read-outs that look alike come from different tables or passages of the source. These are yes or no findings as the source states them, for the method shown. In cells and extracts the contact can be indirect. These calls come from enrichment with a bait or labelling near it, and not all partners need be listed. For part of these data: No binding means not detected with the bait.
